The list is a part of this screen's results and no random one: it gathers tests that were run many times, whatever their T/C, doses with no T/C, and many T/C values between a quarter and a half above the control. Other doses and runs of a compound stand elsewhere. T/C: endpoint of the treated group in % of that of the vehicle group. Some entries give survivors of the animals treated and no T/C: the source files T/C as zero there, which appears to mark a toxic dose or a test without result, not a measured value. Some survivor counts are full or nearly so, which does not show that the dose was tolerated: survival well below the control is almost never listed, so the zero probably covers shortened survival too. Counts of survivors are from the toxicity check (mostly the fifth day) where no day follows; animals may have died later. Schedules are NCI's codes, read here as Q, the interval in days (D) or hours (H), X, the number of doses. Some doses were run more than once; the values are given in rising order. For survival time, the PubChem record calls one and a half times the control and up active, and a quarter to a half above the control has no call in these data; cut-offs in other NCI protocols can differ. Signs of the kind (2×) stand for listed records that agree. Numbered stars: 1 amine (or outer) side, 2 acyl side, 3 side chain; on linkers, the order of the positions; unused ones are H or OH. Bridge positions count the residues as written; N and C are the ends. Square brackets hold non-standard residues; d marks the D form. Peptide text beside a SMILES is read from it. I, II: the chains in the order shown. Actinocin(9to1) = Cc1c2oc3c(C)ccc(C(=O)[*:1])c3nc-2c(C(=O)[*:2])c(N)c1=O; aThr = C[C@H](O)[C@H](N)C(=O)O; NMeV = CN[C@H](C(=O)O)C(C)C; Sar = CNCC(=O)O

This experiment has as its system Gardner 6C3HED lymphosarcoma ip, C3AKF1 mice, survival T/C. The experiment in a line: NCI In Vivo Anticancer Drug Screen. Data for tumor model Lymphosarcoma Gardner 6C3HED (intraperitoneal) in C3AKF1 (CHKRF1) mice. The following applies: T/C endpoint: survival time, mean or median, higher T/C = longer survival. The protocol:
The antitumor activity of compounds was measured in mice bearing transplantable tumors. Survival or tumor size were measured and the results are expressed as the measurement made in the treated group (T) divided by the measurement made in the vehicle treated control group (C). The tumor model used in this assay is Lymphosarcoma Gardner 6C3HED (intraperitoneal) in C3AKF1 (CHKRF1) mice

[1] abbreviates: dose: 20.0 mg/kg/injection, schedule: Q01DX010 (ip), vehicle: saline.
Setting [2] is: dose: 40.0 mg/kg/injection, schedule: Q01DX010 (ip), vehicle: saline.
Setting [3] is: dose: 100.0 mg/kg/injection, schedule: Q01DX010 (ip), vehicle: alkali diluted with saline.
The mark [4] stands for this setting: dose: 100.0 mg/kg/injection, schedule: Q01DX010 (sc), vehicle: steroid suspending solution.
[5] abbreviates: dose: 200.0 mg/kg/injection, schedule: Q01DX010 (sc), vehicle: steroid suspending solution.
Where [6] appears, read: dose: 4.0 mg/kg/injection, schedule: Q01DX010 (ip), vehicle: saline.
Setting [7] is: dose: 16.0 mg/kg/injection, schedule: Q01DX010 (ip), vehicle: saline.
The mark [8] stands for this setting: dose: 25.0 mg/kg/injection, schedule: Q01DX010 (ip), vehicle: saline.
Setting [9] is: dose: 50.0 mg/kg/injection, schedule: Q01DX010 (ip), vehicle: saline.
The mark [10] stands for this setting: dose: 0.25 mg/kg/injection, schedule: Q01DX010 (ip), vehicle: saline.
The mark [11] stands for this setting: dose: 0.5 mg/kg/injection, schedule: Q01DX010 (ip), vehicle: saline.
[12] abbreviates: dose: 2.0 mg/kg/injection, schedule: Q01DX010 (ip), vehicle: saline.

`Cc1cc(N(CCCl)CCCl)ccc1N=Nc1ccccc1C(=O)O`: the T/C (dose: 10.0 mg/kg/injection, schedule: Q01DX010 (ip), vehicle: saline) was 145 % of control and the T/C under setting [1] is 145 % of control. In addition, the survivor count under setting [2] was 6 of 6.
For `OCC1OC(n2cnc3c(Cl)ncnc32)C(O)C1O` (configuration not stated), for the setting “dose: 62.5 mg/kg/injection, schedule: Q01DX010 (ip), vehicle: saline”, the survivor count is 6 of 6.
Regarding `Nc1nc2n[nH]nc2c(=O)[nH]1`, under setting [3], the T/C is 125 % of control and the survivor count is 6 of 6. Further, the survivor count (dose: 200.0 mg/kg/injection, schedule: Q01DX010 (ip), vehicle: alkali diluted with saline) was 5 of 6 and 6 of 6.
As to `C[C@]12C=CC(=O)C=C1CC[C@@H]1[C@@H]2C(=O)C[C@@]2(C)[C@H]1CC[C@]2(O)C(=O)CO`, the T/C is 108, 125, 130, 155 % of control (dose: 12.5 mg/kg/injection, schedule: Q01DX010 (sc), vehicle: steroid suspending solution); 105, 116, 125, 160 % of control (dose: 25.0 mg/kg/injection, schedule: Q01DX010 (sc), vehicle: steroid suspending solution); 110, 116, 125, 129 % of control (dose: 50.0 mg/kg/injection, schedule: Q01DX010 (sc), vehicle: steroid suspending solution); 95, 104, 108 % of control under setting [4]; 100 % of control under setting [5]. In addition, the survivor count under setting [4] is on record as 6 of 6 and the survivor count under setting [5] is 4 of 6, 5 of 6, 6 of 6.
Consider `Cc1c2oc3c(C)ccc(C(=O)N[C@@H]4C(=O)N[C@H](C(C)C)C(=O)N5CCC[C@H]5C(=O)N(C)CC(=O)N(C)[C@@H](C(C)C)C(=O)O[C@H]4C)c3nc-2c(C(=O)N[C@@H]2C(=O)N[C@H](C(C)C)C(=O)N3CCC[C@H]3C(=O)N(C)CC(=O)N(C)[C@@H](C(C)C)C(=O)O[C@H]2C)c(N)c1=O` (I: [aThr][dV]P[Sar][NMeV] / II: [aThr][dV]P[Sar][NMeV]; ester I:1-I:C, II:1-II:C; linker I:N-II:N via Actinocin(9to1)), for which the T/C (dose: 0.03 mg/kg/injection, schedule: Q01DX010 (ip), vehicle: acid diluted with saline) was 145 % of control.
`CS(=O)(=O)OCCCl`: under “dose: 75.0 mg/kg/injection, schedule: Q01DX010 (ip), vehicle: saline”, the survivor count is on record as 3 of 6.
Consider `CCOC(N)=O`, for which the survivor count reads like this: (dose: 250.0 mg/kg/injection, schedule: Q01DX010 (ip), vehicle: saline) 5 of 6 and 6 of 6; (dose: 500.0 mg/kg/injection, schedule: Q01DX010 (ip), vehicle: saline) 6 of 6; (dose: 1000.0 mg/kg/injection, schedule: Q01DX010 (ip), vehicle: saline) 6 of 6.
Take `C=CC(CN1CC1)OC(C)=O` (configuration not stated): the T/C was 138 % of control under setting [6] and 130 % of control (dose: 8.0 mg/kg/injection, schedule: Q01DX010 (ip), vehicle: saline). The survivor count under setting [7] was 5 of 6.
For the molecule `S=P(N1CCOCC1)(N1CC1)N1CC1`, the T/C under setting [1] is 133 % of control.
Take `COS(C)(=O)=O`: the T/C under setting [8] was 134 % of control.
For the molecule `CN(C)c1ccc(/C=C/c2ccnc3ccccc23)cc1`, the survivor count under setting [2] is 6 of 6.
For the molecule `O=C(Nc1ccc(C2=NCCCN2)cc1)c1ccc(NC(=O)c2ccc(C3=NCCCN3)cc2)cc1`, the T/C (dose: 1.0 mg/kg/injection, schedule: Q01DX010 (ip), vehicle: other) was 133 and 145 % of control. Further, the survivor count (dose: 16.0 mg/kg/injection, schedule: Q01DX010 (ip), vehicle: other) is 4 of 6 and 5 of 6.
Take `O=NN(CCCl)C(=O)NCCCl`: the T/C (dose: 12.5 mg/kg/injection, schedule: Q01DX010 (ip), vehicle: saline) was 130 and 133 % of control. Also, the survivor count is, setting by setting: under setting [8], 6 of 6; under setting [9], 2 of 6 and 3 of 6.
Take `CCCNc1ncnc2[nH]ncc12`: the survivor count under setting [8] is on record as 6 of 6.
For the molecule `CC[C@]1(O)C[C@H]2CN(CCc3c([nH]c4ccccc34)[C@@](C(=O)OC)(c3cc4c(cc3OC)N(C=O)[C@H]3[C@@](O)(C(=O)OC)[C@H](OC(C)=O)[C@]5(CC)C=CCN6CC[C@]43[C@@H]65)C2)C1`, the T/C was 133, 183, 225, 245 % of control (dose: 0.03 mg/kg/injection, schedule: Q01DX010 (ip), vehicle: saline); 183, 200, 285, 300 % of control (dose: 0.06 mg/kg/injection, schedule: Q01DX010 (ip), vehicle: saline); 250 and 300 % of control (2×) under setting [10]; 120 % of control under setting [11]. The survivor count runs as follows: under setting [10], 6 of 6; under setting [11], 6 of 6.
For the molecule `Oc1cc(CN(CCCl)CCCl)c(O)cc1CN(CCCl)CCCl`, the T/C was 129 % of control (dose: 0.63 mg/kg/injection, schedule: Q01DX010 (ip), vehicle: saline) and 133 % of control (dose: 2.5 mg/kg/injection, schedule: Q01DX010 (ip), vehicle: saline).
As for `Clc1ncnc2nc[nH]c12`, the survivor count (dose: 15.0 mg/kg/injection, schedule: Q01DX010 (ip), vehicle: saline) is on record as 6 of 6; the survivor count (dose: 30.0 mg/kg/injection, schedule: Q01DX010 (ip), vehicle: saline) is 6 of 6; the survivor count (dose: 60.0 mg/kg/injection, schedule: Q01DX010 (ip), vehicle: saline) was 6 of 6.
For the molecule `CCN(CC)CCNc1ccc(C)c2sc3ccccc3c(=O)c12`, the survivor count is, setting by setting: under setting [8], 6 of 6; (dose: 200.0 mg/kg/injection, schedule: Q01DX010 (ip), vehicle: saline) 6 of 6. Moreover, the T/C under setting [9] is 142 % of control.
Regarding `O=C(Nc1ccc(NC2=NCCN2)cc1)c1ccc(C(=O)Nc2ccc(NC3=NCCN3)cc2)cc1`, the T/C under setting [12] was 130 % of control and the T/C under setting [7] was 130 % of control.
Consider `O=C(Nc1ccc(C2=NCCN2)cc1)c1ccc(C(=O)Nc2ccc(C3=NCCN3)cc2)c(Cl)c1`, for which, for the setting “dose: 2.0 mg/kg/injection, schedule: Q01DX010 (ip), vehicle: other”, the T/C was 145 % of control.
Turning to `S=c1nc[nH]c2nc[nH]c12`, the T/C (dose: 5.0 mg/kg/injection, schedule: Q01DX010 (ip), vehicle: alkali diluted with saline) was 100, 108, 130 % of control (2×); the T/C (dose: 10.0 mg/kg/injection, schedule: Q01DX010 (ip), vehicle: alkali diluted with saline) was 104, 108, 120, 165 % of control; the T/C (dose: 20.0 mg/kg/injection, schedule: Q01DX010 (ip), vehicle: alkali diluted with saline) is on record as 100, 112, 115, 130 % of control; the T/C (dose: 40.0 mg/kg/injection, schedule: Q01DX010 (ip), vehicle: alkali diluted with saline) is listed as 100, 125, 130, 140 % of control; the T/C (dose: 80.0 mg/kg/injection, schedule: Q01DX010 (ip), vehicle: alkali diluted with saline) is listed as 120, 129, 130, 160 % of control.
As for `Nc1nc(=S)c2[nH]cnc2[nH]1`, the T/C (dose: 1.25 mg/kg/injection, schedule: Q01DX010 (ip), vehicle: saline) was 135 % of control. Further, the survivor count (dose: 2.5 mg/kg/injection, schedule: Q01DX010 (ip), vehicle: other) is recorded as 6 of 6; the survivor count (dose: 5.0 mg/kg/injection, schedule: Q01DX010 (ip), vehicle: other) is recorded as 5 of 6; the survivor count (dose: 10.0 mg/kg/injection, schedule: Q01DX010 (ip), vehicle: other) is reported as 6 of 6.
Consider `C[C@@H]1C[C@@H]([C@H](O)CC2CC(=O)NC(=O)C2)C(=O)[C@@H](C)C1`, for which the survivor count under setting [2] was 5 of 6 and 6 of 6.
Regarding `CS(=O)(=O)OCCN(CCOS(C)(=O)=O)c1ccc(N=O)cc1`, under setting [11], the T/C was 133 % of control. Besides, the survivor count under setting [12] is 6 of 6 and the survivor count under setting [6] is given as 6 of 6.
Regarding `S=P(N1CC1)(N1CC1)N1CC1`, the T/C under setting [6] is 145 % of control.

The values are drawn from PubChem BioAssay AID232 (DTP/NCI, 2004).
